Source: US20210205286A1
No constants are given. Whether binding was seen depends on the method and setting. In cells and extracts the contact can be indirect. Some binding calls cover weakened binding; strength is not graded here. Tags and fused reporters may be left off the sequences shown.

Sequences of proteins named here, by UniProt entry; tags and fusion partners are left off.
UniProt Q93008: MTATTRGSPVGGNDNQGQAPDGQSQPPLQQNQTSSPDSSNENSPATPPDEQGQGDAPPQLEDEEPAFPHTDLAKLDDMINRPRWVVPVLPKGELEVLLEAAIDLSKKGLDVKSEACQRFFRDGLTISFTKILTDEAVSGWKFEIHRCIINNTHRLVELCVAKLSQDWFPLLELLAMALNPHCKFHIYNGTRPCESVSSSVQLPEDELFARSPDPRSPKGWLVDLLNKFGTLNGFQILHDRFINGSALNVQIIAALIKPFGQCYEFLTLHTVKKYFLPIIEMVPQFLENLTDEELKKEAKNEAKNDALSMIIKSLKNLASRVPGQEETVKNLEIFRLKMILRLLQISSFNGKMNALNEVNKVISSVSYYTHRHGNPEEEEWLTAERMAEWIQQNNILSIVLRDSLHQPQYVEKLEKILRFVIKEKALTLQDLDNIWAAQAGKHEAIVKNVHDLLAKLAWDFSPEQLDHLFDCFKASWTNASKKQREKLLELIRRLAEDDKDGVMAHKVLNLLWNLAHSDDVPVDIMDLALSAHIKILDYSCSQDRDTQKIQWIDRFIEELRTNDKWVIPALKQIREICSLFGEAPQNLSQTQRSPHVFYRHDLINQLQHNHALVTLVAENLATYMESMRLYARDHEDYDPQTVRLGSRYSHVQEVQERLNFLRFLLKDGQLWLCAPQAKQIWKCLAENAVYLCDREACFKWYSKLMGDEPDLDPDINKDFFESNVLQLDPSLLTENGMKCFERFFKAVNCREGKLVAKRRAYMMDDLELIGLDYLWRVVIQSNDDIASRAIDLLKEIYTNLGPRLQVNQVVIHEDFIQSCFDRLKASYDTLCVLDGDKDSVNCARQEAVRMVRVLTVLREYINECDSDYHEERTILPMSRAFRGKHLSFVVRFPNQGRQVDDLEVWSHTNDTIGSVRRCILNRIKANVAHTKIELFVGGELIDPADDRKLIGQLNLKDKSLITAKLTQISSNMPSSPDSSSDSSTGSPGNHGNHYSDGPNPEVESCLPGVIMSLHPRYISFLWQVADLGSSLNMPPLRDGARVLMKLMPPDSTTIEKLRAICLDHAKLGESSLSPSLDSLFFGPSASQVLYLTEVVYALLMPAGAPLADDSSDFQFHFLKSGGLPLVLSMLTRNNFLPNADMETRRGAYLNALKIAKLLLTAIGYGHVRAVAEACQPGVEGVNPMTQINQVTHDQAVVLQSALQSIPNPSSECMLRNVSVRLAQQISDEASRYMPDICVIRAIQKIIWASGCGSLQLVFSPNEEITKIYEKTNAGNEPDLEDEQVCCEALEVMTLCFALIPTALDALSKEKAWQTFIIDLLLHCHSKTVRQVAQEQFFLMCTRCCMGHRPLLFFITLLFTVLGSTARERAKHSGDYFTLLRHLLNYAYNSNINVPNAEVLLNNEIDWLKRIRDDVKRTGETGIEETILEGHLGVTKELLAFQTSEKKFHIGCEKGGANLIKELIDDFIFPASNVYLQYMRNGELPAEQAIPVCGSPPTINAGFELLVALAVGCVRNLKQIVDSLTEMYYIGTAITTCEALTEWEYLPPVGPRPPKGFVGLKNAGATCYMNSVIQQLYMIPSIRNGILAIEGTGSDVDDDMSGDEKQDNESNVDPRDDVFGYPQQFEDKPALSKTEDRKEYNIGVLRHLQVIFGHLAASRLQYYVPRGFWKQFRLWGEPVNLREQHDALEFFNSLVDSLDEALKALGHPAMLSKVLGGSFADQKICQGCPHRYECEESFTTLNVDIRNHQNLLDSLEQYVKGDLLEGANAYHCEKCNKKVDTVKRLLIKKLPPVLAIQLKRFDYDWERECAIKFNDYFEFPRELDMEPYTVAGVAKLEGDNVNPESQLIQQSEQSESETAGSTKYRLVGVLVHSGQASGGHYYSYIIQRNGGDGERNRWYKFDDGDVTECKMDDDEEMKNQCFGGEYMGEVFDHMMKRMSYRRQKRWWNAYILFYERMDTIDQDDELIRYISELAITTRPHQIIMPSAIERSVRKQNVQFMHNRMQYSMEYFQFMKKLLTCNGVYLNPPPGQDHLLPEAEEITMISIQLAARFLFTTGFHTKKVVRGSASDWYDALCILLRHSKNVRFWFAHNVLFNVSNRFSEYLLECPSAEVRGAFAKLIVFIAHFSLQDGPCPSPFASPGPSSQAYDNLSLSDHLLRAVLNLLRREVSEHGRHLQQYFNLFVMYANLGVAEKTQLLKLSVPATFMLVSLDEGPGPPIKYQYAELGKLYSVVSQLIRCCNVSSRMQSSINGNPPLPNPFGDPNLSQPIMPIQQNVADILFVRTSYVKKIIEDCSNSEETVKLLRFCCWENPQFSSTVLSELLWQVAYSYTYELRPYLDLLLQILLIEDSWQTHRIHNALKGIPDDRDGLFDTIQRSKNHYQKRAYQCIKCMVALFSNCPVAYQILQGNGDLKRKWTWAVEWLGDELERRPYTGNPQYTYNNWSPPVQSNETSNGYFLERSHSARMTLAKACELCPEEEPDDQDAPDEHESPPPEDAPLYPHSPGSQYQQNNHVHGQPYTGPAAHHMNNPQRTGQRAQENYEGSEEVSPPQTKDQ

Molecular target: USP9X (endogenous) (UniProt Q93008)
Assay: co-IP, anti-FLAG IP, blot with anti-USP9X (FIG. 4D)

binding: binds
B1: FLAG-TAK1 (enzyme, UniProt O43318 1-606, looked up, not shown: small tags and cut ends)
chain: MSTASAASSSSSSSAGEMIEAPSQVLNFEEIDYKEIEVEEVVGRGAFGVVCKAKWRAKDVAIKQIESESERKAFIVELRQLSRVNHPNIVKLYGACLNPVCLVMEYAEGGSLYNVLHGAEPLPYYTAAHAMSWCLQCSQGVAYLHSMQPKALIHRDLKPPNLLLVAGGTVLKICDFGTACDIQTHMTNNKGSAAWMAPEVFEGSNYSEKCDVFSWGIILWEVITRRKPFDEIGGPAFRIMWAVHNGTRPPLIKNLPKPIESLMTRCWSKDPSQRPSMEEIVKIMTHLMRYFPGADEPLQYPCQYSDEGQSNSATSTGSFMDIASTNTSNKSDTNMEQVPATNDTIKRLESKLLKNQAKQQSESGRLSLGASRGSSVESLPPTSEGKRMSADMSEIEARIAATTAYSKPKRGHRKTASFGNILDVPEIVISGNGQPRRRSIQDLTVTGTEPGQVSSRSSSPSVRMITTSGPTSEKPTRSHPWTPDDSTDTNGSDNSIPMAYLTLDHQLQPLAPCPNSKESMAVFEQHCKMAQEYMKVQTEIALLLQRKQELVAELDQDEKDQQNTSRLVQEHKKLLDENKSLSTYYQQCKKQLEVIRSQQQKRQGTS
